Source: PubChem BioAssay AID504808 (Drosophila RNAi Screening Center, 2011)

Assay: 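Fly genes required to hold E2F transcription in check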 (primary screen)
System: Drosophila S2 cells
Reagent: long dsRNA against Drosophila genes
Read-out: 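Dual luciferase plate measurements; E2F-specific signal taken as firefly over Renilla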
Direction: E2F firefly: higher = more E2F reporter activity; Renilla normaliser: higher = more normaliser reporter signal
Active means: 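Called active if the normalised E2F reporter went up by over 50%; the cutoff is arbitrary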
In all, the deposit lists about 21,000 reagents; this is a random part of those with a known target gene and a result. In the full data, 18 (0.084%) got an active call. 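Raw counts without plate normalisation, one of two replicates; the ratio scores behind the calls were not deposited.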 Reagent sequences are not shown. Not stated in the record: the amount of reagent, the time to read-out.

{"gene": "Skeletor (retired record)", "dsRNA": "DRSC14905", "E2F firefly, rep 1": 1.19e5, "Renilla normaliser, rep 1": 5563, "activity call": "inactive"}
{"gene": "Skeletor (retired record)", "dsRNA": "DRSC14906", "E2F firefly, rep 1": 76158, "Renilla normaliser, rep 1": 259, "activity call": "inactive"}
{"gene": "CG46491", "dsRNA": "DRSC06565", "E2F firefly, rep 1": 71182, "Renilla normaliser, rep 1": 3345, "activity call": "inactive"}
{"gene": "CG46491", "dsRNA": "DRSC06566", "E2F firefly, rep 1": 1.38e5, "Renilla normaliser, rep 1": 5232, "activity call": "inactive"}
{"gene": "ND-B12 (NADH dehydrogenase (ubiquinone) B12 subunit)", "dsRNA": "DRSC04060", "E2F firefly, rep 1": 1.03e5, "Renilla normaliser, rep 1": 4062, "activity call": "inactive"}
{"gene": "CG12541", "dsRNA": "DRSC17483", "E2F firefly, rep 1": 83838, "Renilla normaliser, rep 1": 2565, "activity call": "inactive"}
{"gene": "CG12541", "dsRNA": "DRSC17839", "E2F firefly, rep 1": 1.25e5, "Renilla normaliser, rep 1": 5797, "activity call": "inactive"}
{"gene": "CCKLR-17D1 (Cholecystokinin-like receptor at 17D1)", "dsRNA": "DRSC20010", "E2F firefly, rep 1": 1.50e5, "Renilla normaliser, rep 1": 6758, "activity call": "inactive"}
{"gene": "CCKLR-17D1 (Cholecystokinin-like receptor at 17D1)", "dsRNA": "DRSC20011", "E2F firefly, rep 1": 1.47e5, "Renilla normaliser, rep 1": 6221, "activity call": "inactive"}
{"gene": "CCKLR-17D1 (Cholecystokinin-like receptor at 17D1)", "dsRNA": "DRSC20012", "E2F firefly, rep 1": 1.35e5, "Renilla normaliser, rep 1": 5610, "activity call": "inactive"}
{"gene": "Jhbp11 (Juvenile hormone binding protein 11)", "dsRNA": "DRSC15183", "E2F firefly, rep 1": 1.17e5, "Renilla normaliser, rep 1": 6153, "activity call": "inactive"}
{"gene": "Prx1 (Peroxiredoxin 1)", "dsRNA": "DRSC10741", "E2F firefly, rep 1": 1.57e5, "Renilla normaliser, rep 1": 8491, "activity call": "inactive"}
{"gene": "Spn31A (Serpin 31A)", "dsRNA": "DRSC02780", "E2F firefly, rep 1": 1.55e5, "Renilla normaliser, rep 1": 5585, "activity call": "inactive"}
{"gene": "CG11664", "dsRNA": "DRSC18650", "E2F firefly, rep 1": 38083, "Renilla normaliser, rep 1": 3233, "activity call": "inactive"}
{"gene": "Nph (Nucleophosmin)", "dsRNA": "DRSC16342", "E2F firefly, rep 1": 1.25e5, "Renilla normaliser, rep 1": 6784, "activity call": "inactive"}

Continued; the last 5 above are carried over.
{"gene": "Jhbp11 (Juvenile hormone binding protein 11)", "dsRNA": "DRSC15183", "E2F firefly, rep 1": 1.17e5, "Renilla normaliser, rep 1": 6153, "activity call": "inactive"}
{"gene": "Prx1 (Peroxiredoxin 1)", "dsRNA": "DRSC10741", "E2F firefly, rep 1": 1.57e5, "Renilla normaliser, rep 1": 8491, "activity call": "inactive"}
{"gene": "Spn31A (Serpin 31A)", "dsRNA": "DRSC02780", "E2F firefly, rep 1": 1.55e5, "Renilla normaliser, rep 1": 5585, "activity call": "inactive"}
{"gene": "CG11664", "dsRNA": "DRSC18650", "E2F firefly, rep 1": 38083, "Renilla normaliser, rep 1": 3233, "activity call": "inactive"}
{"gene": "Nph (Nucleophosmin)", "dsRNA": "DRSC16342", "E2F firefly, rep 1": 1.25e5, "Renilla normaliser, rep 1": 6784, "activity call": "inactive"}
{"gene": "beat-VII (beaten path VII)", "dsRNA": "DRSC13780", "E2F firefly, rep 1": 90683, "Renilla normaliser, rep 1": 2477, "activity call": "inactive"}
{"gene": "beat-VII (beaten path VII)", "dsRNA": "DRSC14743", "E2F firefly, rep 1": 1.22e5, "Renilla normaliser, rep 1": 6197, "activity call": "inactive"}
{"gene": "beat-VII (beaten path VII)", "dsRNA": "DRSC14744", "E2F firefly, rep 1": 1.17e5, "Renilla normaliser, rep 1": 5779, "activity call": "inactive"}
{"gene": "CG13747", "dsRNA": "DRSC06418", "E2F firefly, rep 1": 1.43e5, "Renilla normaliser, rep 1": 4397, "activity call": "inactive"}
{"gene": "alpha-Est3 (alpha-Esterase-3)", "dsRNA": "DRSC12615", "E2F firefly, rep 1": 76923, "Renilla normaliser, rep 1": 3304, "activity call": "inactive"}
{"gene": "Cyp305a1 (Cytochrome P450 305a1)", "dsRNA": "DRSC11126", "E2F firefly, rep 1": 81066, "Renilla normaliser, rep 1": 4684, "activity call": "inactive"}
{"gene": "CG15373", "dsRNA": "DRSC19663", "E2F firefly, rep 1": 1.68e5, "Renilla normaliser, rep 1": 6867, "activity call": "inactive"}
{"gene": "CG9698", "dsRNA": "DRSC16539", "E2F firefly, rep 1": 1.16e5, "Renilla normaliser, rep 1": 6301, "activity call": "inactive"}
{"gene": "Ttc30 (Tetratricopeptide repeat domain 30)", "dsRNA": "DRSC01300", "E2F firefly, rep 1": 1.40e5, "Renilla normaliser, rep 1": 6448, "activity call": "inactive"}
{"gene": "Ttc30 (Tetratricopeptide repeat domain 30)", "dsRNA": "DRSC02818", "E2F firefly, rep 1": 96712, "Renilla normaliser, rep 1": 3911, "activity call": "inactive"}
{"gene": "side (sidestep)", "dsRNA": "DRSC14523", "E2F firefly, rep 1": 1.15e5, "Renilla normaliser, rep 1": 6360, "activity call": "inactive"}
{"gene": "side (sidestep)", "dsRNA": "DRSC14716", "E2F firefly, rep 1": 1.12e5, "Renilla normaliser, rep 1": 5781, "activity call": "inactive"}
{"gene": "side (sidestep)", "dsRNA": "DRSC14717", "E2F firefly, rep 1": 1.09e5, "Renilla normaliser, rep 1": 6096, "activity call": "inactive"}
{"gene": "side (sidestep)", "dsRNA": "DRSC14718", "E2F firefly, rep 1": 1.10e5, "Renilla normaliser, rep 1": 5730, "activity call": "inactive"}
{"gene": "side (sidestep)", "dsRNA": "DRSC14721", "E2F firefly, rep 1": 1.13e5, "Renilla normaliser, rep 1": 5669, "activity call": "inactive"}
{"gene": "CG6836", "dsRNA": "DRSC10722", "E2F firefly, rep 1": 79690, "Renilla normaliser, rep 1": 3459, "activity call": "inactive"}
{"gene": "CG34057", "dsRNA": "DRSC08375", "E2F firefly, rep 1": 97519, "Renilla normaliser, rep 1": 4633, "activity call": "inactive"}
{"gene": "CG10031", "dsRNA": "DRSC00286", "E2F firefly, rep 1": 1.55e5, "Renilla normaliser, rep 1": 5553, "activity call": "inactive"}
{"gene": "CG11231 (retired record)", "dsRNA": "DRSC17207", "E2F firefly, rep 1": 59173, "Renilla normaliser, rep 1": 3391, "activity call": "inactive"}
{"gene": "Ccs (Copper chaperone for superoxide dismutase)", "dsRNA": "DRSC06692", "E2F firefly, rep 1": 1.49e5, "Renilla normaliser, rep 1": 5427, "activity call": "inactive"}
{"gene": "CG8173", "dsRNA": "DRSC20088", "E2F firefly, rep 1": 1.52e5, "Renilla normaliser, rep 1": 6906, "activity call": "inactive"}
